Data as given in PubChem BioAssay AID1259308 (NCATS, 2017).
Here is an unselected part of about 59,000 reagents. About 1,510 of all reagents (2.6%) were called active. 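Calls use total luciferase alone and ignore viability, so some active siRNAs may act by altering cell number.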 Unmarked entries are inactive. Reagents against one gene are numbered here.

Purpose: 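Candidate targets for better recombinant protein yield in mammalian cells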 (primary screen)
Cell system: human HEK293 embryonic kidney cells stably expressing firefly luciferase (HEK-CMV-Luc2-Hygro)
Knock-down reagent: single siRNA against human genes, 0.8 pmol siRNA per well
Time to read-out: 72 h
Measurement: 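Luciferase light (ONE-Glo) measured on one replicate plate set and viability (CellTiter-Glo) on the other, scaled to a negative control siRNA, with robust z-scores and luciferase per cell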
Reading the numbers: total luciferase, z-score and total luciferase, % of control: higher = more reporter protein produced; luciferase per cell, z-score: higher = more reporter output per viable cell; viable cells, % of control: higher = more viable cells
Rule for the call: 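An siRNA counts as active if its total luciferase robust z-score exceeds 3; genes with two or more such siRNAs out of three were retested with fresh siRNAs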
Calls: active = raised luciferase; inactive = no rise

target gene | reagent | total luciferase, z-score | total luciferase, % of control | luciferase per cell, z-score | viable cells, % of control
SPIN3 (GeneID 169981) | 1 | 0.183 | 85.5 | 0.236 | 89.8
SPIN3 (GeneID 169981) | 2 | -0.388 | 74.2 | -0.46 | 93.6
SPIN3 (GeneID 169981) | 3 | 0.668 | 95.2 | 0.283 | 98.7
KCNK15 (GeneID 60598) | 1 | -1.05 | 61 | -1.41 | 98.7
KCNK15 (GeneID 60598) | 2 | -1.43 | 53.4 | -0.835 | 74.4
KCNK15 (GeneID 60598) | 3 | -1.24 | 57.2 | -1.89 | 105
SPATA31F2P (GeneID 389715) | 1 | 0.0827 | 83.5 | 0.352 | 85.1
SPATA31F2P (GeneID 389715) | 2 | -0.943 | 63.1 | 0.818 | 56.9
SPATA31F2P (GeneID 389715) | 3 | 0.542 | 92.7 | 0.59 | 88.7
IRX5 (GeneID 10265) | 1 | 2.01 | 122 | 1.6 | 89.5
IRX5 (GeneID 10265) | 2 | -0.199 | 77.9 | -0.679 | 104
IRX5 (GeneID 10265) | 3 | -0.597 | 70 | 1.07 | 59
PRKCE (GeneID 5581) | 1 | -1.34 | 55.2 | -0.96 | 79.4
PRKCE (GeneID 5581) | 2 | 0.461 | 91.1 | 0.0686 | 99.9
PRKCE (GeneID 5581) | 3 | 1.69 | 116 | 1.01 | 99
EFHD2 (GeneID 79180) | 1 | -0.182 | 78.3 | -0.178 | 91.6
EFHD2 (GeneID 79180) | 2 | -0.256 | 76.8 | -0.638 | 102
EFHD2 (GeneID 79180) | 3 | 0.749 | 96.8 | 0.769 | 88.3
TXLNA (GeneID 200081) | 1 | -1.47 | 52.6 | -1.02 | 76.9
TXLNA (GeneID 200081) | 2 | 0.262 | 87.1 | 0.0119 | 97
TXLNA (GeneID 200081) | 3 | -0.521 | 71.5 | -1.03 | 105

Next part; the last 5 above are carried over.
target gene | reagent | total luciferase, z-score | total luciferase, % of control | luciferase per cell, z-score | viable cells, % of control
EFHD2 (GeneID 79180) | 2 | -0.256 | 76.8 | -0.638 | 102
EFHD2 (GeneID 79180) | 3 | 0.749 | 96.8 | 0.769 | 88.3
TXLNA (GeneID 200081) | 1 | -1.47 | 52.6 | -1.02 | 76.9
TXLNA (GeneID 200081) | 2 | 0.262 | 87.1 | 0.0119 | 97
TXLNA (GeneID 200081) | 3 | -0.521 | 71.5 | -1.03 | 105
THPO (GeneID 7066) | 1 | -0.146 | 79 | -0.737 | 107
THPO (GeneID 7066) | 2 | -2.69 | 28.5 | -3.8 | 86.6
THPO (GeneID 7066) | 3 | -0.922 | 63.6 | -1.18 | 97
SEBOX (GeneID 645832) | 1 | -0.661 | 68.7 | -0.212 | 81.2
SEBOX (GeneID 645832) | 2 | -0.433 | 73.3 | -0.765 | 100
SEBOX (GeneID 645832) | 3 | -0.0419 | 81.1 | 0.0524 | 89.3
CEACAM18 (GeneID 729767) | 1 | 0.496 | 91.7 | 0.332 | 93.9
CEACAM18 (GeneID 729767) | 2 | -0.885 | 64.3 | 1.19 | 52.5
CEACAM18 (GeneID 729767) | 3 | 0.244 | 86.7 | 0.103 | 94.3
AMIGO3 (GeneID 386724) | 1 | -0.807 | 65.8 | -0.445 | 82.7
AMIGO3 (GeneID 386724) | 2 | 3.46 (active) | 151 | 2.41 | 89.4
AMIGO3 (GeneID 386724) | 3 | -1.2 | 58.1 | -1.09 | 86.5
LOC728376 (GeneID 728376) | 1 | -0.521 | 71.5 | -1.16 | 108
LOC728376 (GeneID 728376) | 2 | 0.827 | 98.3 | 0.532 | 95.5
LOC728376 (GeneID 728376) | 3 | 0.67 | 95.2 | 0.234 | 100
SYN1 (GeneID 6853) | 1 | -2 | 42.2 | -2.8 | 98.5
SYN1 (GeneID 6853) | 2 | -0.901 | 64 | -0.928 | 91.3
SYN1 (GeneID 6853) | 3 | 0.832 | 98.4 | 0.779 | 89.6
APTX (GeneID 54840) | 1 | -1.51 | 51.9 | -0.942 | 74.4
APTX (GeneID 54840) | 2 | -0.0986 | 79.9 | -0.414 | 99.6
APTX (GeneID 54840) | 3 | -0.701 | 67.9 | -1.15 | 103
RPS27L (GeneID 51065) | 1 | -0.564 | 70.7 | -1.05 | 104
RPS27L (GeneID 51065) | 2 | 0.399 | 89.8 | 0.333 | 92
RPS27L (GeneID 51065) | 3 | 0.474 | 91.3 | 0.447 | 90.7
MCM8 (GeneID 84515) | 1 | -0.827 | 65.4 | -1.5 | 109
MCM8 (GeneID 84515) | 2 | 1.43 | 110 | 1.17 | 90.7
MCM8 (GeneID 84515) | 3 | 0.581 | 93.4 | 0.187 | 99.4
CPSF7 (GeneID 79869) | 1 | 3.44 (active) | 150 | 1.99 | 99.5
CPSF7 (GeneID 79869) | 2 | 0.0979 | 83.8 | -0.349 | 103
CPSF7 (GeneID 79869) | 3 | 0.483 | 91.5 | 0.281 | 94.9
LCE1C (GeneID 353133) | 1 | -1.87 | 44.7 | -2.65 | 100
LCE1C (GeneID 353133) | 2 | -0.0388 | 81.1 | -0.787 | 111
LCE1C (GeneID 353133) | 3 | 0.364 | 89.1 | 0.735 | 82.1
TCAF2 (GeneID 285966) | 1 | 0.249 | 86.8 | 1.46 | 66
TCAF2 (GeneID 285966) | 2 | -1.98 | 42.5 | -1.73 | 74.9
TCAF2 (GeneID 285966) | 3 | 0.468 | 91.2 | 1.12 | 75.9
